Reference: patent US8093260B2, “Aporphine derivatives and pharmaceutical use thereof” (Standard Chem. & Pharm. Co., Ltd., priority 2008, dated 2012)
Some entries share one result that the patent states for a list of compounds.

Experiment: Free radical scavenging of DPPH (absorbance at 517 nm)
Assay type: biochemical
Settings: DPPH 100 μM, 30 min, room temperature, FIG. 1

Structure (SMILES)	concentration at which activity in free radical scavenging of DPPH is exhibited
COc1cc2c(cc1OC)-c1c(O)c(OC)cc3c1C(C2)N(CC(O)COc1ccccc1OC)CC3 (centres unmarked) [Compound 1]	> 10^−5 M
COc1cc2c(cc1OC)-c1c(O)c(OC)cc3c1C(C2)N(CC(=O)Nc1c(C)cccc1C)CC3 (centres unmarked) [Compound 2]	> 10^−5 M
